From PMC12361455 come the findings set out here.

Assay [1] addresses T1, FGF receptor 4 (FGFR4) (mouse (endogenous in BMDMs and RAW264.7)), Q03142.
T1 chain: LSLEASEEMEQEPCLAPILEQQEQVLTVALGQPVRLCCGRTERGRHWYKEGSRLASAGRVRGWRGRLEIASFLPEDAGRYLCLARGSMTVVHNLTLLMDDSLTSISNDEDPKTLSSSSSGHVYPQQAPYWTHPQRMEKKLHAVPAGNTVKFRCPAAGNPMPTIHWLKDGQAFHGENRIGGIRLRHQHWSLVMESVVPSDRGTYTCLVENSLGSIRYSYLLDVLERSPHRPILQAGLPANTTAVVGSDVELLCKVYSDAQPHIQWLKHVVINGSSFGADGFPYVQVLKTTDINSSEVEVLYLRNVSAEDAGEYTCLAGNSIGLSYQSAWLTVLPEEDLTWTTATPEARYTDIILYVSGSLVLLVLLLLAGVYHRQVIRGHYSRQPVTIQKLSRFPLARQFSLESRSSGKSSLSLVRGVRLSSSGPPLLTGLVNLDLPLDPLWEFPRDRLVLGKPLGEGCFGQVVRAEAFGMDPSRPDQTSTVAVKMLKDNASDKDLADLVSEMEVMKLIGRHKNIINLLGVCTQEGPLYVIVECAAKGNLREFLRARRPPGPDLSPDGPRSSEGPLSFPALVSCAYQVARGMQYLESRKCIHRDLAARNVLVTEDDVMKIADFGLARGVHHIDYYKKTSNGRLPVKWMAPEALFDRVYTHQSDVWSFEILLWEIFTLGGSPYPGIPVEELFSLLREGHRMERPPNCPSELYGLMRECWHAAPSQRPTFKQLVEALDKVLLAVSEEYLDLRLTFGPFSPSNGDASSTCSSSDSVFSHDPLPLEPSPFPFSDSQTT
The assay is described as follows: co-IP; lysates of mouse BMDMs and RAW264.7 macrophages in IP lysis buffer; anti-FGFR4 antibody or IgG overnight at 4 °C, Protein A/G agarose beads 4 h at 4 °C; western blot of the precipitate. The conditions noted are these: remark: other sources report otherwise.

The target in assay [2] is T1, FGF receptor 4 (FGFR4) (mouse …). The experiment in a line: co-IP; lysates of RAW264.7 macrophages overexpressing NF2-WT or NF2-Mut, treated with LPS + rFGF15; anti-FGFR4 antibody or IgG overnight at 4 °C, Protein A/G agarose beads 4 h at 4 °C; western blot of the precipitate. The conditions noted are these: remark: other sources report otherwise.

No constants are given. Whether binding was seen depends on the method and setting. In cells and extracts the contact can be indirect. Some binding calls cover weakened binding; strength is not graded here.

B1: neurofibromin 2 (NF2/Merlin), P46662 1-596 (protein)
chain: MAGAIASRMSFSSLKRKQPKTFTVRIVTMDAEMEFNCEMKWKGKDLFDLVCRTLGLRETWFFGLQYTIKDTVAWLKMDKKVLDHDVSKEEPVTFHFLAKFYPENAEEELVQEITQHLFFLQVKKQILDEKVYCPPEASVLLASYAVQAKYGDYDPSVHKRGFLAQEELLPKRVINLYQMTPEMWEERITAWYAEHRGRARDEAEMEYLKIAQDLEMYGVNYFTIRNKKGTELLLGVDALGLHIYDPENRLTPKISFPWNEIRNISYSDKEFTIKPLDKKIDVFKFNSSKLRVNKLILQLCIGNHDLFMRRRKADSLEVQQMKAQAREEKARKQMERQRLAREKQMREEAERTRDELERRLLQMKEEATMANEALMRSEETADLLAEKAQITEEEAKLLAQKAAEAEQEMQRIKATAIRTEEEKRLMEQKVLEAEVLALKMAEESERRAKEADQLKQDLQEAREAERRAKQKLLEIATKPTYPPMNPIPPPLPPDIPSFDIIADSLSFDFKDTDMKRLSMEIEKEKVEYMEKSKHLQEQLNELKTEIEALKLKERETALDVLHSESSDRGGPSSKHNTIKKLTLQSAKSRVAFFEEL
On to B1, for which the binding entry in assay [1] was “binds”.

B2: wild-type NF2 (NF2-WT), P46662 1-596 (protein)
chain: B1 chain
As for B2, the binding result in assay [2] is “binds”.
